No constants are given. Whether binding was seen depends on the method and setting. Some results given as binding are weak or reduced against the parent protein; the word gives no strength.
B1: Mco10 (Mitochondrial class one protein of 10 kDa) (protein, UniProt Q3E824 1-90)
chain: MGAAYKVFGKTVQPHVLAISTFIATAAVASYFTTKPKTKNEGKNSSALSQQKSGESSNSDAMGKDDDVVKSIEGFLNDLEKDTRQDTKAN
B2: ATP synthase subunit g/Atp20 (protein, UniProt Q12233 1-115)
chain: MLSRIQNYTSGLVSKANLLSSKALYYGKVGAEISKQIYLKEGLQPPTVAQFKSVYSNLYKQSLNFALKPTEVLSCLKNIQKNELLKYGAYGIQLIGFYSVGEIIGRRKLVGYKHH
B3: ATP synthase subunit e/Atp21 (protein, UniProt P81449 1-96)
chain: MSTVNVLRYSALGLGLFFGFRNDMILKCNAKKKEEQAQYEEKLKLVEEAKKEYAKLHPVVTPKDVPANASFNLEDPNIDFERVILNAVESLKEAST
B4: chaperonin Hsp10 (protein, UniProt P38910 1-106)
chain: MSTLLKSAKSIVPLMDRVLVQRIKAQAKTASGLYLPEKNVEKLNQAEVVAVGPGFTDANGNKVVPQVKVGDQVLIPQFGGSTIKLGNDDEVILFRDAEILAKIAKD
B5: MICOS component Mic10 (protein, UniProt Q96VH5 1-97)
chain: MSEQAQTQQPAKSTPSKDSNKNGSSVSTILDTKWDIVLSNMLVKTAMGFGVGVFTSVLFFKRRAFPVWLGIGFGVGRGYAEGDAIFRSSAGLRSSKV

Amino acid sequences for entries named in this document (tags omitted). A change or cut given only in a name is not applied to a line headed by its entry.
UniProt P07251: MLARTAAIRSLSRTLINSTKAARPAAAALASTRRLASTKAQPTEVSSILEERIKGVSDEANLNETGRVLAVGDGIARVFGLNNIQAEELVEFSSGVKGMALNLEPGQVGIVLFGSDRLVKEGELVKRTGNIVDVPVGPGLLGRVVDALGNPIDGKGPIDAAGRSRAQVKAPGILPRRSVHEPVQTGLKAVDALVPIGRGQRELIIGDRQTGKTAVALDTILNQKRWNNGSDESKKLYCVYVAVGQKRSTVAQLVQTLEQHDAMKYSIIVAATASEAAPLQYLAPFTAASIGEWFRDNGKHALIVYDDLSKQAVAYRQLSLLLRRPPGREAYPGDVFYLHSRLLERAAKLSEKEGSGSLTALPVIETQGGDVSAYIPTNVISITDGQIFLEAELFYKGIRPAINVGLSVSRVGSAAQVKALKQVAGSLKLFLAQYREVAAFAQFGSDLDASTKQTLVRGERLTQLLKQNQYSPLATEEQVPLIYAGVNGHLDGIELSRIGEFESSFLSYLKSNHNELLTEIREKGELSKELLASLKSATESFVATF

These binders were tested against S. cerevisiae ATP synthase monomer (S. cerevisiae) (UniProt P07251) (assay: native gel or EMSA; 2D BN-PAGE/SDS-PAGE with mass spectrometry: S. cerevisiae mitochondria extracted with 2% digitonin, monomers and dimers separated on 3-12% BN-PAGE, resolved on 16% SDS-PAGE, 5-20 kDa region of each analysed by LC/MS).
For B1, the binding was “binds”.
In the case of B2, the binding is reported as “binds”.
With B3 the binding was “binds”.
In the case of B4, the binding is reported as “binds”.
For B5, the binding was “binds”.

What follows are binders tested against S. cerevisiae ATP synthase dimer (S. cerevisiae) (UniProt P07251) in the same assay as above.
In the case of B1, the binding is reported as “binds”.
B2 was tested, and the binding was “binds”.
In the case of B3, the binding is reported as “binds”.
B4 was tested, and the binding was “binds”.
With B5 the binding was “binds”.

The binders below were run against S. cerevisiae ATP synthase monomer (S. cerevisiae) (UniProt P07251) (assay: native gel or EMSA; 2D BN-PAGE/SDS-PAGE with Western blot: digitonin extracts of mitochondria from wild type, Δatp19, Δatp20, Δatp21 and Δmco10 strains; monomer and dimer lanes probed with anti-Mco10 and anti-Atp19 antibodies).
For B1, the binding was “binds”.

What follows are binders tested against S. cerevisiae ATP synthase dimer (S. cerevisiae) (UniProt P07251) in the same assay as above.
B1 was tested, and the binding was “binds weakly”.

Source: publication PMC9992712
